The target of assay [1] is C0-C1-C2 region of the glutamate NMDAR NR1 subunit (mouse) (UniProt P35438). The assay is described as follows: pull-down; NR1 C0-C1-C2, MOR1 Ct, HINT1, BiP and Nt and Ct domains of TRP channels covalently attached to NHS-activated Sepharose; 100 nM σ1R WT or E102Q; 2.5 mM CaCl2, 50 mM Tris-HCl pH 7.4, 0.2% CHAPS, 300 uL, 30 min, RT; western blot; both purified.
Assay [2] addresses C-terminal region of the mu-opioid receptor MOR1 (mouse) (UniProt P42866). The assay is described as above.
Assay [3] concerns the target N-terminal cytosolic region of TRPA1 (mouse) (UniProt Q8BLA8). The assay is described as above.
Assay [4] has as its target T1, histidine triad nucleotide-binding protein 1 (HINT1) (mouse) (UniProt P70349).
T1 sequence: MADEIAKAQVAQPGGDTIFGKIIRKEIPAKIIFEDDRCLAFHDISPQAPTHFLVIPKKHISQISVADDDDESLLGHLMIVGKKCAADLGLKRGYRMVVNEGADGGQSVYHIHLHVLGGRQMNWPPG
Described as above.

Chains of the proteins cited; added tags and fusions are not shown. Lines headed by an entry give the natural chain unless they say otherwise; changes in a name come on top. Residues count along the entry.
UniProt Q8BLA8: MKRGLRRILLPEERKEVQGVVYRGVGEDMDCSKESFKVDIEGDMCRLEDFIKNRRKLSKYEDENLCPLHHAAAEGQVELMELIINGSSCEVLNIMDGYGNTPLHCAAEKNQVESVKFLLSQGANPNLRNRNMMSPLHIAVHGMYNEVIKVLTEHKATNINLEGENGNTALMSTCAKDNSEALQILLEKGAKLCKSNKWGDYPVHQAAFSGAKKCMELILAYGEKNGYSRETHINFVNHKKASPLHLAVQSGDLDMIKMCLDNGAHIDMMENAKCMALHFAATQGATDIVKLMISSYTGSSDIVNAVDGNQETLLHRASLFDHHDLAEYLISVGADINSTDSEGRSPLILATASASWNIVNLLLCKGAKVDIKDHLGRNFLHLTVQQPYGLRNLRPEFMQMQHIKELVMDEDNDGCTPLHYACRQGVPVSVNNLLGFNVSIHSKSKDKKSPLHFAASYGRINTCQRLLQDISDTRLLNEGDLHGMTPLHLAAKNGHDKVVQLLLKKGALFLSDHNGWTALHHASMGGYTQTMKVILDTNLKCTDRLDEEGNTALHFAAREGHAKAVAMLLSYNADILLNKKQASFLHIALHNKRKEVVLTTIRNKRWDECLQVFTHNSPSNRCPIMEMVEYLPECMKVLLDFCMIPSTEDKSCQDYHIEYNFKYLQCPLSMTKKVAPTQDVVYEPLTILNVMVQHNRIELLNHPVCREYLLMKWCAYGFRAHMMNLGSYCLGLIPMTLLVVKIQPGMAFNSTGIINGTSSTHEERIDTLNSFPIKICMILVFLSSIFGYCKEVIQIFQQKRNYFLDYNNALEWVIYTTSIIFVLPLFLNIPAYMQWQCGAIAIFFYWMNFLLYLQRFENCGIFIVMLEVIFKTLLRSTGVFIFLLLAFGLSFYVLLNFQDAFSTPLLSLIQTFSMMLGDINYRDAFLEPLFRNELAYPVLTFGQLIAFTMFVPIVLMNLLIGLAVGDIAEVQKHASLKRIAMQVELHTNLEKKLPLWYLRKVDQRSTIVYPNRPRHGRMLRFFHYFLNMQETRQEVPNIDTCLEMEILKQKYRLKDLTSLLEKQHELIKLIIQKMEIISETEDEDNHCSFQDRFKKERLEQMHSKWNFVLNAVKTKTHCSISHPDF
UniProt P11021, residues 19-654: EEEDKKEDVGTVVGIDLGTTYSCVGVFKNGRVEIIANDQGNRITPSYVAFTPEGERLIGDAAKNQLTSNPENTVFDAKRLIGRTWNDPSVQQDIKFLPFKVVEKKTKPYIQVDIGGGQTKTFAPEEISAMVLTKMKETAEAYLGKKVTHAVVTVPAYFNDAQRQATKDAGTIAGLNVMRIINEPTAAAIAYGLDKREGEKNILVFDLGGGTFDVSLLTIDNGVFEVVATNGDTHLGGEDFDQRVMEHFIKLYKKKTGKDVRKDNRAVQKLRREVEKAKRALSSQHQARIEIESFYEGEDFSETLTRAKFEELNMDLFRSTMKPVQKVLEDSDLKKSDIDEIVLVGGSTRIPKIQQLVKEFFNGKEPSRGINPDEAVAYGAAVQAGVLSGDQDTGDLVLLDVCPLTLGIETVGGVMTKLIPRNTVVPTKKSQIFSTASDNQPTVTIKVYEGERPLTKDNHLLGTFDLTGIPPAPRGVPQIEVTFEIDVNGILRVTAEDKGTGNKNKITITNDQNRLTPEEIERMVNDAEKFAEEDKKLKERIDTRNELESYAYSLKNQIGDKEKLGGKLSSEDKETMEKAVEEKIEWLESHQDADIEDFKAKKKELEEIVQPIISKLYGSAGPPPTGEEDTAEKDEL
UniProt Q8R4D5: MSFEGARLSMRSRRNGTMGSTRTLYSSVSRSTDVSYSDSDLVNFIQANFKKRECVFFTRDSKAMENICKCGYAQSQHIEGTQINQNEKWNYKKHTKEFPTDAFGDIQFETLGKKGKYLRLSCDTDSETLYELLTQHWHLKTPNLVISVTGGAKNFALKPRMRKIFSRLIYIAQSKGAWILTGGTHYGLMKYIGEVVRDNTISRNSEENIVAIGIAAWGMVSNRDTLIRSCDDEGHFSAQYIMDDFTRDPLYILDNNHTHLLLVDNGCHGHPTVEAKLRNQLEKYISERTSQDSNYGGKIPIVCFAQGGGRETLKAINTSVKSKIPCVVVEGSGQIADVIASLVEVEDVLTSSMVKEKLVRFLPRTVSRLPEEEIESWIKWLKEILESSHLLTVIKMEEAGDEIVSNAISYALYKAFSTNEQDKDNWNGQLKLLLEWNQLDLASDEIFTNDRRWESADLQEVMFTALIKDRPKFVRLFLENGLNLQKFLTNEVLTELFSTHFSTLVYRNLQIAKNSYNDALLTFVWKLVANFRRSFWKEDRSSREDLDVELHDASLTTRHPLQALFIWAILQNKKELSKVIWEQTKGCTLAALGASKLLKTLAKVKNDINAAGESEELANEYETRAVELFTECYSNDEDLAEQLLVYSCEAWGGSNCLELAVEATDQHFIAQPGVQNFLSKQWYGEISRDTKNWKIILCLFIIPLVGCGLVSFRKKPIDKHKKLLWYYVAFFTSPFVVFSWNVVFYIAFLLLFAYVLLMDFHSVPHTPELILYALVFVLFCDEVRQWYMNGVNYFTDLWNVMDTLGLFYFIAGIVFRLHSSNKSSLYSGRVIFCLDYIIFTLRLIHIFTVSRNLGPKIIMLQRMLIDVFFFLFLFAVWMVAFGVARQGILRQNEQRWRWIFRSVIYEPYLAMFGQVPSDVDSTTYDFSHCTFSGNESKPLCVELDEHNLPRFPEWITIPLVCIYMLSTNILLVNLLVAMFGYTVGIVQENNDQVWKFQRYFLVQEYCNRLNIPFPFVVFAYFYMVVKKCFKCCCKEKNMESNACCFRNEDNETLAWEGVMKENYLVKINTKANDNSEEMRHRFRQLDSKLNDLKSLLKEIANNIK
UniProt O55242: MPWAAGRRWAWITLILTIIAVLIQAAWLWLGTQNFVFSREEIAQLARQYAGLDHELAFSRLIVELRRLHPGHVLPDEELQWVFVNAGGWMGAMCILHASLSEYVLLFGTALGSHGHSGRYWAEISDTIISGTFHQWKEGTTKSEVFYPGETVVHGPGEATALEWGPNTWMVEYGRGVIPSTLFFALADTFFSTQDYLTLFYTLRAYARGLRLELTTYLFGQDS

Assay [5] has as its target binding immunoglobulin protein (BiP) (UniProt P11021). Described as above.
Assay [6] concerns the target N-terminal cytosolic region of TRPM8 (mouse) (UniProt Q8R4D5). The description is as above.
Assay [7] has as its target C-terminal cytosolic region of TRPA1 (mouse) (UniProt Q8BLA8). The description is as above.
Assay [8] deals with C0-C1-C2 region of the glutamate NMDAR NR1 subunit (mouse) (UniProt P35438). The assay is described as follows: pull-down; NR1 C0-C1-C2, BiP or TRPV1 Ct covalently attached to NHS-activated Sepharose; 100 nM σ1R WT or E102Q; 0, 0.25, 0.83 and 2.5 mM CaCl2; 50 mM Tris-HCl pH 7.4, 0.2% CHAPS, 300 uL, 30 min, RT; σ1R in the pellet by western blot; both purified. On the technique in general: In western blotting, separated proteins are transferred to a membrane and probed.

In assay [9] the target is binding immunoglobulin protein (BiP) (UniProt P11021). Described as above.
Assay [10] concerns the target C0-C1-C2 region of the glutamate NMDAR NR1 subunit (mouse) (UniProt P35438). The assay is described as follows: pull-down; preformed complexes of σ1R WT or E102Q (100 nM) with Sepharose-attached NR1 C0-C1-C2 or BiP, washed, then 30 min at RT with increasing concentrations of σ1R ligands (progesterone, S1RA, PPCC, pregnenolone sulfate); 50 mM Tris-HCl, 0.2% CHAPS, 2.5 mM CaCl2; σ1R left on the beads by immunoblot; both purified.

In assay [11] the target is binding immunoglobulin protein (BiP) (UniProt P11021). The assay is described as above.
The target of assay [12] is C0-C1-C2 region of the glutamate NMDAR NR1 subunit (mouse) (UniProt P35438). The assay is described as follows: pull-down; as a1, at 'low calcium levels' (which of 0, 0.25 and 0.83 mM CaCl2 is not said); NR1 C0-C1-C2 on NHS-activated Sepharose, 100 nM σ1R; both purified.

Results are given in words; binding and its absence hold for the method and conditions named. Binding calls can cover weak binding; strength is not graded here. For part of these data: Where a sequence is shown, tags or fusion partners need not be part of it.

Regarding “sigma receptor type 1 (σ1R) E102Q mutant (from UniProt O55242)”, the binding entry in [1] is listed as “binds”; in [2] it was “binds”; in assay [3], “binds”; in assay [4], “binds”; in assay [5], “binds weakly”; in assay [6], “binds”. The binding result in assay [7] is “binds”; in [8], “binds”; in [9], “binds weakly”; in [10] it was “binds”; in [11], “binds”; in [12], “binds”.

The values are drawn from PMC7582951.
